Assay results as given in paper PMC11574045, “A cofactor-induced repressive type of transcription factor condensation can be induced by synthetic peptides to suppress tumorigenesis” (The EMBO Journal, 2024).
These are yes or no findings as the source states them, for the method shown. Binding seen in cells or lysates may run through a third protein. These calls come from enrichment with a bait or labelling near it, and not all partners need be listed.

By UniProt entry, the sequences of proteins in these tests, tags left out.
UniProt Q15561: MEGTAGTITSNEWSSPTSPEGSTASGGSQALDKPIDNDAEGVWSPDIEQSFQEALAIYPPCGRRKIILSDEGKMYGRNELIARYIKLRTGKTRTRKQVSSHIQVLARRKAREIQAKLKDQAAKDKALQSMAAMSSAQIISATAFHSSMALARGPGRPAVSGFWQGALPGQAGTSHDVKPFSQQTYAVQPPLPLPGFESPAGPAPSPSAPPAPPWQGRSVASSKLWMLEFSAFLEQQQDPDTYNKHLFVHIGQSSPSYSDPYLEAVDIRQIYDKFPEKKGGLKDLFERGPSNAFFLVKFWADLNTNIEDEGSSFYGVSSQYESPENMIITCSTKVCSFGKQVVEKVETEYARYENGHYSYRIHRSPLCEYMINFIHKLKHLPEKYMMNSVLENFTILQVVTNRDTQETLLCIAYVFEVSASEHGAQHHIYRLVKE
UniProt Q9GZV5: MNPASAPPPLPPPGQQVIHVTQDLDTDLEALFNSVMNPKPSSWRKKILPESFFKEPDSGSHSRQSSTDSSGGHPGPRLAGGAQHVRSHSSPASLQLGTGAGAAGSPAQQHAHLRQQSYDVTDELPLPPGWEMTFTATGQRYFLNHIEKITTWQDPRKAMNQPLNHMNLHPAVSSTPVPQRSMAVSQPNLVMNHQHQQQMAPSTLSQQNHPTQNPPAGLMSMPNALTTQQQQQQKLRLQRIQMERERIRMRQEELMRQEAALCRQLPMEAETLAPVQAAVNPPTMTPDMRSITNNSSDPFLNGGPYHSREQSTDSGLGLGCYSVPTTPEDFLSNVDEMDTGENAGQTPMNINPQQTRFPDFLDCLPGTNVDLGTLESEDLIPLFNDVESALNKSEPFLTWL
UniProt P25490: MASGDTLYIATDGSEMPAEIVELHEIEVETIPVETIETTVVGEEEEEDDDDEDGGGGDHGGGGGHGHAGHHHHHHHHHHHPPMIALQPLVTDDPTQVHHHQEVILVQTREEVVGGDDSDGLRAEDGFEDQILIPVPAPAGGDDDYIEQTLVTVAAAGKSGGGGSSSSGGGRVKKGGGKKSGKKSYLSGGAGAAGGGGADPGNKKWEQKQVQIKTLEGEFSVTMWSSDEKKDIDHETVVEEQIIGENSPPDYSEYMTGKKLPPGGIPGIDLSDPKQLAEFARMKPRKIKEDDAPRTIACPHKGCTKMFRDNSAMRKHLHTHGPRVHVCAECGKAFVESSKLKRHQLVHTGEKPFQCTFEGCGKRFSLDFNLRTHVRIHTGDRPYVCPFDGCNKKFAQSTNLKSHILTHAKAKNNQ
UniProt O95751: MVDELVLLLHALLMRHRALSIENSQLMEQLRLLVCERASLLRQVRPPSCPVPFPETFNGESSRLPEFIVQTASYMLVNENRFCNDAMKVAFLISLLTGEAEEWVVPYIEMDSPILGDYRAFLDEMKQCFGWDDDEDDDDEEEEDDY

Target: BirA-fused TEAD4 (human) (UniProt Q15561)
Test: proximity labelling; BioID: TEAD4-BirA in HEK293FT, in triplicate; biotin 500 μM; NETN lysis with micrococcal nuclease; streptavidin beads; label-free quantitative mass spectrometry

| binding | Substance |
| --- | --- |
| binds | TAZ (from UniProt Q9GZV5 1-400) |
| binds | YY1 (from UniProt P25490 1-414) |
| binds | LDOC1 (from UniProt O95751 1-146) |
